Reference: paper PMC11792579
Where a chain is given by its changes, count along the chain named. No constants are given. Whether binding was seen depends on the method and setting. Binding seen in cells or lysates may run through a third protein. Some entries that bind do so weakly or less than the wild type. Sequences can lack the tags named with a protein.

Chains of the proteins cited; added tags and fusions are not shown.
UniProt O95071: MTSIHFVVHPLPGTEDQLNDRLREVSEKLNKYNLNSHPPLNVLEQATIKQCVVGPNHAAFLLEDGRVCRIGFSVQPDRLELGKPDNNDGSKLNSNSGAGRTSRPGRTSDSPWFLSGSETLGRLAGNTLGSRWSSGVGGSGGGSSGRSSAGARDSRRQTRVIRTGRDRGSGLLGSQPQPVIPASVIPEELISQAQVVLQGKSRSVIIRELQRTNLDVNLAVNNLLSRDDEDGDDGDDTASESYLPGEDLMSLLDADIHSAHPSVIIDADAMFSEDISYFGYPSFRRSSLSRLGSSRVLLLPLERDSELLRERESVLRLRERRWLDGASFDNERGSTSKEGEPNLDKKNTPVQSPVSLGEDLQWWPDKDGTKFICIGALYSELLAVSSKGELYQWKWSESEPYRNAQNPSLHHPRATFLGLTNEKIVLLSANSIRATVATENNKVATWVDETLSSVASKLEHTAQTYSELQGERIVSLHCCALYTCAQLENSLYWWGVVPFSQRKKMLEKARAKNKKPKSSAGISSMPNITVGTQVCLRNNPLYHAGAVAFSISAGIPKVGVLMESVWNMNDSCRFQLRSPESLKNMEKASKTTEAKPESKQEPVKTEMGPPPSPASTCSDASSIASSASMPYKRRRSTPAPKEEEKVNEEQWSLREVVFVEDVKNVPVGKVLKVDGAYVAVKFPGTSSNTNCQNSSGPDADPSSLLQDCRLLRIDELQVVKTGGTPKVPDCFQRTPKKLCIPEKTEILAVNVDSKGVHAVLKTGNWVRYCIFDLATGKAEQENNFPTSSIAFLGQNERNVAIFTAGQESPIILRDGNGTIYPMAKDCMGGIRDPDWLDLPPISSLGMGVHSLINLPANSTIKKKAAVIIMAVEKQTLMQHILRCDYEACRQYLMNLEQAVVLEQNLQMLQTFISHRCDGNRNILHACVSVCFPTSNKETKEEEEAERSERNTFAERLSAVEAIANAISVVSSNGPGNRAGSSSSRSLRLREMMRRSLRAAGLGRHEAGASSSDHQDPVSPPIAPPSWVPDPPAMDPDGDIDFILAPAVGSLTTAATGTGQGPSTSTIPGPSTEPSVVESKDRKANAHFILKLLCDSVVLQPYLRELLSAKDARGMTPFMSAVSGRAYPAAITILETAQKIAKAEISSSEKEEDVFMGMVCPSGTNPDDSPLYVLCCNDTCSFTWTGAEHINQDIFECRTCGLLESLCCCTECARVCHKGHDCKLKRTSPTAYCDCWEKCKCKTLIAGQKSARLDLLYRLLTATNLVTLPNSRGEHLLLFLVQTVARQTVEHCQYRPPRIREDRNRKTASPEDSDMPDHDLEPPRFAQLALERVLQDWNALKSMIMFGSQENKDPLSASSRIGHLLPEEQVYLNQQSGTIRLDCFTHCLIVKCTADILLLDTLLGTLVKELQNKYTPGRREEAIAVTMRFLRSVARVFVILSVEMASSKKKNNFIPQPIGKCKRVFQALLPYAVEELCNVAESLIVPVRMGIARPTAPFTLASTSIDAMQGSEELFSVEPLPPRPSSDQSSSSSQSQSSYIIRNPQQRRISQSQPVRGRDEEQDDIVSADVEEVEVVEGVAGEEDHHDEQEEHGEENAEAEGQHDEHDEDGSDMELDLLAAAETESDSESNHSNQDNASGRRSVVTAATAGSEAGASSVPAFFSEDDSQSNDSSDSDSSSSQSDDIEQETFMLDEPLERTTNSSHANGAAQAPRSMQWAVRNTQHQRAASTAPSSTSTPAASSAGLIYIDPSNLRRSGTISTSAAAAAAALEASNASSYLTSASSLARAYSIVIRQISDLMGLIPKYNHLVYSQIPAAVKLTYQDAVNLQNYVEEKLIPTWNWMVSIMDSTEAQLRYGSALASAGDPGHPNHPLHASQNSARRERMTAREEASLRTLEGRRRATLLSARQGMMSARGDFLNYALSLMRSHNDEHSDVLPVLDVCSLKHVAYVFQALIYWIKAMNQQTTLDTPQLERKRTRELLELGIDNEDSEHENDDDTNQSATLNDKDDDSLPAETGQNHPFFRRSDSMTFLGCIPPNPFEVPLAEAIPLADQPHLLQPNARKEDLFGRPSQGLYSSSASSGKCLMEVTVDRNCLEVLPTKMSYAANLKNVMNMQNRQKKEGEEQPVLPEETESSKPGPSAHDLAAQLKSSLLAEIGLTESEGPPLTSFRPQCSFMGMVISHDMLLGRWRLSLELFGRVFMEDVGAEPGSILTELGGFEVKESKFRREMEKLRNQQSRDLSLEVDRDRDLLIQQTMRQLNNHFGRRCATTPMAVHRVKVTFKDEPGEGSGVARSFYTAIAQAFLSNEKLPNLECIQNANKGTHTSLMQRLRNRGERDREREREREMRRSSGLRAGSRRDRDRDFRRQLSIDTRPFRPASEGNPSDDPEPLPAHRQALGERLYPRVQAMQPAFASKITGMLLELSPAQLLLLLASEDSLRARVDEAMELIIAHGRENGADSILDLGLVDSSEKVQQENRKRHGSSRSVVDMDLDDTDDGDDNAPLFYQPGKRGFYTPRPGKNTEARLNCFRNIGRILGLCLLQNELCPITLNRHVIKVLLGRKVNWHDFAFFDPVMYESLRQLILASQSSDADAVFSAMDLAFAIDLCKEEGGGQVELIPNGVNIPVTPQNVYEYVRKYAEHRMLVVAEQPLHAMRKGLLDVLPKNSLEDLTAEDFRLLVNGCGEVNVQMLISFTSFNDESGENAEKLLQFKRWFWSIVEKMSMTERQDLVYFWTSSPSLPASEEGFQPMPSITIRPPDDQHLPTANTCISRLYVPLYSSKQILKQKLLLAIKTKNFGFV

Key:
HA-NAT10 K262R = molecular target: T1, HA-NAT10 K262R (UniProt Q9H0A0); test: co-IP; HA-NAT10 (WT or K-R mutants) co-expressed with MYC-Ub and Flag-UBR5; MG132 (100 nM, 8 h); IP with HA antibody, immunoblotting
T1 sequence: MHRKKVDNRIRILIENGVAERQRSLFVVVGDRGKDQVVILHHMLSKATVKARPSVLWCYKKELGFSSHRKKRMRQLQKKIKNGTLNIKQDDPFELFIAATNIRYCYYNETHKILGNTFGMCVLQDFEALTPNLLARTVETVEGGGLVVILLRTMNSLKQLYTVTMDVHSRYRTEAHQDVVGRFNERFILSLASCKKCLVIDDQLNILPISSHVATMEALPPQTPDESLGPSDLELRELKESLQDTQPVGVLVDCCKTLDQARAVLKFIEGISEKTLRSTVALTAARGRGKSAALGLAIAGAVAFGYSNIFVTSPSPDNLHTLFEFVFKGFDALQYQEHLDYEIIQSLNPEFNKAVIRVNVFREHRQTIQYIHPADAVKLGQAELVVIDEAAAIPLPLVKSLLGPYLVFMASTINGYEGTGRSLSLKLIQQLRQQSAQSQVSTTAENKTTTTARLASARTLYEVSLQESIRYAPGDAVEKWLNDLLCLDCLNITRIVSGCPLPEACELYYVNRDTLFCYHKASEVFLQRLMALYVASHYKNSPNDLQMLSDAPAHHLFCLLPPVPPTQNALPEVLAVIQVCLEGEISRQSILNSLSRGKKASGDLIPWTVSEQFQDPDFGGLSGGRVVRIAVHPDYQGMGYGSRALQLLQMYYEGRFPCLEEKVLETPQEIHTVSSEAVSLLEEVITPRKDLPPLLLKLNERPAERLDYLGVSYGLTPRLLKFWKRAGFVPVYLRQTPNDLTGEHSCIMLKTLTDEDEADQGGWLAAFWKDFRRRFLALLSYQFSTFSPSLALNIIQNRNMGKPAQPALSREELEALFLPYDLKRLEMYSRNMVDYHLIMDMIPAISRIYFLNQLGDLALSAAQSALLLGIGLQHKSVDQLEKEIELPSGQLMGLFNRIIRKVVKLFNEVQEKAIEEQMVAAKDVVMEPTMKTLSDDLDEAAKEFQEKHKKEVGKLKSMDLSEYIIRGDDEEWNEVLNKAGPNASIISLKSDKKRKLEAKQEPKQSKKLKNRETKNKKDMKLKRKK

HA-NAT10 K274R = molecular target: T2, HA-NAT10 K274R (UniProt Q9H0A0); test: as above
T2 sequence: T1 sequence with R262K, K274R

**Q.** What does the source list for FLAG-UBR5 (from UniProt O95071 1-2799)?
**A.** binding (HA-NAT10 K262R): binds; binding (HA-NAT10 K274R): binds
